According to patent US20250290928A1, “METHOD, KIT AND DEVICE FOR DETECTING EXTRACELLULAR VESICLES” (priority 2022, published 2025):

Test system: MMP in the MDA-MB-231-derived extracellular vesicles
Assay: Digital detection of MDA-MB-231-derived extracellular vesicles through MMP activity in wells (SB substrates)
Type: biochemical, Human
Details: 24 hr; for Double-positive ratio 1 Average / Double-positive ratio 2 Average / Double-positive ratio 3 Average / SB Expected value λ Average: MP with #2T, average of the results under the three conditions; for Double-positive ratio 1 (double-positives with respect to all the positives) / Double-positive ratio 2 (double-positives with respect to the positives for any one of SB2, SB6, SB7, SB9, and SB10) / Double-positive ratio 3 (double-positives with respect to the positives for Custom #2T) / Expected value λ / Number of positives / Positive ratio / Expected value λ (×1): MP; for Expected value λ (×1): at x1
Method: The concentration of the solution is 10 μg/mL. […] The solution was further diluted 2-fold to prepare a standard sample at a concentration of x1/4, further diluted 3-fold to prepare a standard sample at a concentration of x1/12, and further diluted 3-fold to prepare a standard sample at a concentration of x1/36. Thus, the standard samples with four concentrations were prepared.
In addition, 1 mM Alexa Fluor 647 was used as a standard fluorescent substance, and each of the MMP14 detection solutions contained the standard fluorescent substance at a final concentration of 2 μM.
50 μL of each of the MMP detection solutions was added to 50 μL of each of the samples, a reaction was performed at 30° C., and MMP activity was evaluated.

QXL520-Pro-Tyr-Ala-Tyr-Trp-Met-Arg-Lys(5-FAM)-NH2 (PYAYWMRK; QXL520, 5-FAM, C-terminal amide; printed: Pro-Tyr-Ala-Tyr-Trp-Met-Arg-Lys) [SB7]
Double-positive ratio 1 Average: 0.1276 | Double-positive ratio 2 Average: 0.1387 | Double-positive ratio 3 Average: 0.641 | SB Expected value λ Average: 1.083 | Double-positive ratio 1 (double-positives with respect to all the positives) (1.25 μM with 1.25 μM #2T): 0.1442 | Double-positive ratio 2 (double-positives with respect to the positives for any one of SB2, SB6, SB7, SB9, and SB10) (1.25 μM with 1.25 μM #2T): 0.1636 | Double-positive ratio 3 (double-positives with respect to the positives for Custom #2T) (1.25 μM with 1.25 μM #2T): 0.5493 | Expected value λ (1.25 μM with 1.25 μM #2T): 0.6272 | Number of positives (1.25 μM with 1.25 μM #2T): 13,220 | Positive ratio (1.25 μM with 1.25 μM #2T): 0.4659 | Expected value λ (×1) (1.25 μM with 1.25 μM #2T): 1.882 | Double-positive ratio 1 (double-positives with respect to all the positives) (2.5 μM with 2.5 μM #2T): 0.1093 | Double-positive ratio 2 (double-positives with respect to the positives for any one of SB2, SB6, SB7, SB9, and SB10) (2.5 μM with 2.5 μM #2T): 0.1185 | Double-positive ratio 3 (double-positives with respect to the positives for Custom #2T) (2.5 μM with 2.5 μM #2T): 0.5833 | Expected value λ (2.5 μM with 2.5 μM #2T): 1.414 | Number of positives (2.5 μM with 2.5 μM #2T): 21,473 | Positive ratio (2.5 μM with 2.5 μM #2T): 0.7568 | Expected value λ (×1) (2.5 μM with 2.5 μM #2T): 4.242 | Double-positive ratio 1 (double-positives with respect to all the positives) (5 μM with 5 μM #2T): 0.1293 | Double-positive ratio 2 (double-positives with respect to the positives for any one of SB2, SB6, SB7, SB9, and SB10) (5 μM with 5 μM #2T): 0.1339 | Double-positive ratio 3 (double-positives with respect to the positives for Custom #2T) (5 μM with 5 μM #2T): 0.7905 | Expected value λ (5 μM with 5 μM #2T): 1.2081 | Number of positives (5 μM with 5 μM #2T): 19,812 | Positive ratio (5 μM with 5 μM #2T): 0.7012 | Expected value λ (×1) (5 μM with 5 μM #2T): 3.6243

TAMRA-GGPLGLAGGK(TQ3) (TAMRA, TQ3 quencher) [Custom #2T]
Expected value λ (1.25 μM #2T with 1.25 μM SB2): 0.1924 | Number of positives (1.25 μM #2T with 1.25 μM SB2): 4,970 | Positive ratio (1.25 μM #2T with 1.25 μM SB2): 0.175 | Expected value λ (1.25 μM #2T with 1.25 μM SB6): 0.1888 | Number of positives (1.25 μM #2T with 1.25 μM SB6): 4,874 | Positive ratio (1.25 μM #2T with 1.25 μM SB6): 0.172 | Expected value λ (1.25 μM #2T with 1.25 μM SB7): 0.1494 | Number of positives (1.25 μM #2T with 1.25 μM SB7): 3,938 | Positive ratio (1.25 μM #2T with 1.25 μM SB7): 0.1388 | Expected value λ (1.25 μM #2T with 1.25 μM SB9): 0.1813 | Number of positives (1.25 μM #2T with 1.25 μM SB9): 4,693 | Positive ratio (1.25 μM #2T with 1.25 μM SB9): 0.1658 | Expected value λ (1.25 μM #2T with 1.25 μM SB10): 0.2246 | Number of positives (1.25 μM #2T with 1.25 μM SB10): 5,696 | Positive ratio (1.25 μM #2T with 1.25 μM SB10): 0.2012 | Expected value λ (2.5 μM #2T with 2.5 μM SB2): 0.1783 | Number of positives (2.5 μM #2T with 2.5 μM SB2): 4,617 | Positive ratio (2.5 μM #2T with 2.5 μM SB2): 0.1633 | Expected value λ (2.5 μM #2T with 2.5 μM SB6): 0.1962 | Number of positives (2.5 μM #2T with 2.5 μM SB6): 5,057 | Positive ratio (2.5 μM #2T with 2.5 μM SB6): 0.1781 | Expected value λ (2.5 μM #2T with 2.5 μM SB7): 0.167 | Number of positives (2.5 μM #2T with 2.5 μM SB7): 4,363 | Positive ratio (2.5 μM #2T with 2.5 μM SB7): 0.1538 | Expected value λ (2.5 μM #2T with 2.5 μM SB9): 0.2269 | Number of positives (2.5 μM #2T with 2.5 μM SB9): 5,748 | Positive ratio (2.5 μM #2T with 2.5 μM SB9): 0.203 | Expected value λ (2.5 μM #2T with 2.5 μM SB10): 0.2226 | Number of positives (2.5 μM #2T with 2.5 μM SB10): 5,655 | Positive ratio (2.5 μM #2T with 2.5 μM SB10): 0.1996 | Expected value λ (5 μM #2T with 5 μM SB2): 0.1563 | Number of positives (5 μM #2T with 5 μM SB2): 4,098 | Positive ratio (5 μM #2T with 5 μM SB2): 0.1447 | Expected value λ (5 μM #2T with 5 μM SB6): 0.1379 | Number of positives (5 μM #2T with 5 μM SB6): 3,661 | Positive ratio (5 μM #2T with 5 μM SB6): 0.1288 | Expected value λ (5 μM #2T with 5 μM SB7): 0.1265 | Number of positives (5 μM #2T with 5 μM SB7): 3,356 | Positive ratio (5 μM #2T with 5 μM SB7): 0.1188 | Expected value λ (5 μM #2T with 5 μM SB9): 0.1925 | Number of positives (5 μM #2T with 5 μM SB9): 4,962 | Positive ratio (5 μM #2T with 5 μM SB9): 0.1752 | Expected value λ (5 μM #2T with 5 μM SB10): 0.1192 | Number of positives (5 μM #2T with 5 μM SB10): 3,671 | Positive ratio (5 μM #2T with 5 μM SB10): 0.1124

QXL520-Pro-Leu-Ala-Leu-Trp-Ala-Arg-Lys(5-FAM)-NH2 (PLALWARK; QXL520, 5-FAM, C-terminal amide; printed: Pro-Leu-Ala-Leu-Trp-Ala-Arg-Lys) [SB2]
Double-positive ratio 1 Average: 0.1357 | Double-positive ratio 2 Average: 0.1626 | Double-positive ratio 3 Average: 0.4475 | SB Expected value λ Average: 0.576 | Double-positive ratio 1 (double-positives with respect to all the positives) (1.25 μM with 1.25 μM #2T): 0.1614 | Double-positive ratio 2 (double-positives with respect to the positives for any one of SB2, SB6, SB7, SB9, and SB10) (1.25 μM with 1.25 μM #2T): 0.1937 | Double-positive ratio 3 (double-positives with respect to the positives for Custom #2T) (1.25 μM with 1.25 μM #2T): 0.4919 | Expected value λ (1.25 μM with 1.25 μM #2T): 0.5879 | Number of positives (1.25 μM with 1.25 μM #2T): 12,625 | Positive ratio (1.25 μM with 1.25 μM #2T): 0.4445 | Expected value λ (×1) (1.25 μM with 1.25 μM #2T): 1.764 | Double-positive ratio 1 (double-positives with respect to all the positives) (2.5 μM with 2.5 μM #2T): 0.09855 | Double-positive ratio 2 (double-positives with respect to the positives for any one of SB2, SB6, SB7, SB9, and SB10) (2.5 μM with 2.5 μM #2T): 0.1259 | Double-positive ratio 3 (double-positives with respect to the positives for Custom #2T) (2.5 μM with 2.5 μM #2T): 0.3119 | Expected value λ (2.5 μM with 2.5 μM #2T): 0.5182 | Number of positives (2.5 μM with 2.5 μM #2T): 11,435 | Positive ratio (2.5 μM with 2.5 μM #2T): 0.4044 | Expected value λ (×1) (2.5 μM with 2.5 μM #2T): 1.555 | Double-positive ratio 1 (double-positives with respect to all the positives) (5 μM with 5 μM #2T): 0.1471 | Double-positive ratio 2 (double-positives with respect to the positives for any one of SB2, SB6, SB7, SB9, and SB10) (5 μM with 5 μM #2T): 0.1683 | Double-positive ratio 3 (double-positives with respect to the positives for Custom #2T) (5 μM with 5 μM #2T): 0.5386 | Expected value λ (5 μM with 5 μM #2T): 0.6219 | Number of positives (5 μM with 5 μM #2T): 13,115 | Positive ratio (5 μM with 5 μM #2T): 0.4631 | Expected value λ (×1) (5 μM with 5 μM #2T): 1.866

QXL520-Arg-Pro-Leu-Ala-Leu-Trp-Arg-Lys(5-FAM)-NH2 (RPLALWRK; QXL520, 5-FAM, C-terminal amide; printed: Arg-Pro-Leu-Ala-Leu-Trp-Arg-Lys) [SB9]
Double-positive ratio 1 Average: 0.1473 | Double-positive ratio 2 Average: 0.1882 | Double-positive ratio 3 Average: 0.4048 | SB Expected value λ Average: 0.5016 | Double-positive ratio 1 (double-positives with respect to all the positives) (1.25 μM with 1.25 μM #2T): 0.1398 | Double-positive ratio 2 (double-positives with respect to the positives for any one of SB2, SB6, SB7, SB9, and SB10) (1.25 μM with 1.25 μM #2T): 0.1854 | Double-positive ratio 3 (double-positives with respect to the positives for Custom #2T) (1.25 μM with 1.25 μM #2T): 0.3622 | Expected value λ (1.25 μM with 1.25 μM #2T): 0.3915 | Number of positives (1.25 μM with 1.25 μM #2T): 9,168 | Positive ratio (1.25 μM with 1.25 μM #2T): 0.324 | Expected value λ (×1) (1.25 μM with 1.25 μM #2T): 1.1745 | Double-positive ratio 1 (double-positives with respect to all the positives) (2.5 μM with 2.5 μM #2T): 0.1417 | Double-positive ratio 2 (double-positives with respect to the positives for any one of SB2, SB6, SB7, SB9, and SB10) (2.5 μM with 2.5 μM #2T): 0.1786 | Double-positive ratio 3 (double-positives with respect to the positives for Custom #2T) (2.5 μM with 2.5 μM #2T): 0.4071 | Expected value λ (2.5 μM with 2.5 μM #2T): 0.6211 | Number of positives (2.5 μM with 2.5 μM #2T): 13,100 | Positive ratio (2.5 μM with 2.5 μM #2T): 0.4626 | Expected value λ (×1) (2.5 μM with 2.5 μM #2T): 1.863 | Double-positive ratio 1 (double-positives with respect to all the positives) (5 μM with 5 μM #2T): 0.1604 | Double-positive ratio 2 (double-positives with respect to the positives for any one of SB2, SB6, SB7, SB9, and SB10) (5 μM with 5 μM #2T): 0.2005 | Double-positive ratio 3 (double-positives with respect to the positives for Custom #2T) (5 μM with 5 μM #2T): 0.445 | Expected value λ (5 μM with 5 μM #2T): 0.4923 | Number of positives (5 μM with 5 μM #2T): 11,014 | Positive ratio (5 μM with 5 μM #2T): 0.3888 | Expected value λ (×1) (5 μM with 5 μM #2T): 1.477
